Laboratory results from the supplement of paper PMC12819154, “High-throughput peptide-centric local stability assay extends protein–ligand identification to membrane proteins, tissues and bacteria” (Nature Structural & Molecular Biology, 2025).
The other results are listed elsewhere or left out. Most entries show no effect beyond the scatter of the controls.

The chains behind the UniProt entries cited, without tags or fusion partners. Where a name states a change or a piece, a line headed by the entry shows the natural chain unless it says otherwise.
UniProt Q16626: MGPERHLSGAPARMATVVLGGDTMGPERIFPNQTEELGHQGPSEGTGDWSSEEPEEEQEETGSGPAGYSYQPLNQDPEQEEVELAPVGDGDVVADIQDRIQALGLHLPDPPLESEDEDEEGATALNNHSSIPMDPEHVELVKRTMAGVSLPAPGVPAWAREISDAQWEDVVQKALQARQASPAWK
UniProt Q16576, whole entry: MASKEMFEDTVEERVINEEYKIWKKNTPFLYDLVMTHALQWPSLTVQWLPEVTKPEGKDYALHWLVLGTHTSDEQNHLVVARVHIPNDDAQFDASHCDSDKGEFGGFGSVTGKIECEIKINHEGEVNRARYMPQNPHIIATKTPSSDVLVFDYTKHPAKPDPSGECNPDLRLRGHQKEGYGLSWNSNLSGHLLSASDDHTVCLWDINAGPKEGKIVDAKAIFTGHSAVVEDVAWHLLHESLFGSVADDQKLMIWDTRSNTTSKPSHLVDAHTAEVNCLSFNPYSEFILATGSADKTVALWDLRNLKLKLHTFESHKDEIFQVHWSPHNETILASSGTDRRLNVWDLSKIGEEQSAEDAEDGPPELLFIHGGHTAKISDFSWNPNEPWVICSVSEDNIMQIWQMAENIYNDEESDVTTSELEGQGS
UniProt Q15057: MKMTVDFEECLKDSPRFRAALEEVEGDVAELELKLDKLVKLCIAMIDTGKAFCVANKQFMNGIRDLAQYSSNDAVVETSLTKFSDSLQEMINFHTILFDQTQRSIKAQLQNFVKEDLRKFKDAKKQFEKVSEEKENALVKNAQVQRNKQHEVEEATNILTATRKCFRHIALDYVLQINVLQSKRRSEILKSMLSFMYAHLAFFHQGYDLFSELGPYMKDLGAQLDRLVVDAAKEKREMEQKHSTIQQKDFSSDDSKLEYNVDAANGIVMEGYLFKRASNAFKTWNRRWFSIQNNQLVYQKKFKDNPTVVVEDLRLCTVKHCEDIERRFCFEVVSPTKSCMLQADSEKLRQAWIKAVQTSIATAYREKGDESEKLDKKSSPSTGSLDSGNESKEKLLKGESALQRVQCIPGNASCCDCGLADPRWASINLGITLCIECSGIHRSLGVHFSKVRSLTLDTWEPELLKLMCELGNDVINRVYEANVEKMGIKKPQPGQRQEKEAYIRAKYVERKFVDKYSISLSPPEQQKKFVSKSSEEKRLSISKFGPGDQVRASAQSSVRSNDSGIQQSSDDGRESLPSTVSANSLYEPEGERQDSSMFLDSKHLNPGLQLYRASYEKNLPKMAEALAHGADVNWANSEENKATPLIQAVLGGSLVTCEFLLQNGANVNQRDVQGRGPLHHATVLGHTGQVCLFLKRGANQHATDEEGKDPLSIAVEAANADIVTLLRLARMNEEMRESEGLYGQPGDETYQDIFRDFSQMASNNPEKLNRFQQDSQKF
UniProt Q15424: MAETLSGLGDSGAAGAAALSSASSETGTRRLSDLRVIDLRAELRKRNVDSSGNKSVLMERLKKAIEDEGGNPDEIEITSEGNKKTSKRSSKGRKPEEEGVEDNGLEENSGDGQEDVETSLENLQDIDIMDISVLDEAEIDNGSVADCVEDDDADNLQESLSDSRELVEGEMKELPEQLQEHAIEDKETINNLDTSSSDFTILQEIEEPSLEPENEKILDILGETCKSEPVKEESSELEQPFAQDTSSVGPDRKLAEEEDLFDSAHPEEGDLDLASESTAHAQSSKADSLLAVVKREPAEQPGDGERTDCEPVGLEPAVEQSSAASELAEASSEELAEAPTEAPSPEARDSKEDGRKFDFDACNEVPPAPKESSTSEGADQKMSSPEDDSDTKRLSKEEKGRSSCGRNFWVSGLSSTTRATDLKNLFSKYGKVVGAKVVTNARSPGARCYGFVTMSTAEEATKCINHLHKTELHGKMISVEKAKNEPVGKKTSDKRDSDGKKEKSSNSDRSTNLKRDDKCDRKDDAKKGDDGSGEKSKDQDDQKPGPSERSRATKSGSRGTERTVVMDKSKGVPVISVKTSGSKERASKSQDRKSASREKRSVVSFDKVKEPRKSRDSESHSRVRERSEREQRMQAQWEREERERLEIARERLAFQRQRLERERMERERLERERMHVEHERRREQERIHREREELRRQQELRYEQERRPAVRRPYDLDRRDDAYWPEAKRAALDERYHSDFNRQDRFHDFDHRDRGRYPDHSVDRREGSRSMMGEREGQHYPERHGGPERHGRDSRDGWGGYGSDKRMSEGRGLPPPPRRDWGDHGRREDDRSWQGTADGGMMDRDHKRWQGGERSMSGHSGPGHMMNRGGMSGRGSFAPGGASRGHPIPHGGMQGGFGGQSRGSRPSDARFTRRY
UniProt Q15417: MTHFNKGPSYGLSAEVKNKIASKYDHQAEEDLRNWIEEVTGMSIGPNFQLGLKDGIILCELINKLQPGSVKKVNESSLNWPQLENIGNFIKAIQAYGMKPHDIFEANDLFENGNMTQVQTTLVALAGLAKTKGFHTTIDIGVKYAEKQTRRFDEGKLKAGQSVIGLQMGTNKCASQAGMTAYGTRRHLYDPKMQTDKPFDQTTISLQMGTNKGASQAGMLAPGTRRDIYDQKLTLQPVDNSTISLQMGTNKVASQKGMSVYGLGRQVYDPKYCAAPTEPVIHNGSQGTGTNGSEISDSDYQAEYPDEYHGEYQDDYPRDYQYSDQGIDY
UniProt Q15788: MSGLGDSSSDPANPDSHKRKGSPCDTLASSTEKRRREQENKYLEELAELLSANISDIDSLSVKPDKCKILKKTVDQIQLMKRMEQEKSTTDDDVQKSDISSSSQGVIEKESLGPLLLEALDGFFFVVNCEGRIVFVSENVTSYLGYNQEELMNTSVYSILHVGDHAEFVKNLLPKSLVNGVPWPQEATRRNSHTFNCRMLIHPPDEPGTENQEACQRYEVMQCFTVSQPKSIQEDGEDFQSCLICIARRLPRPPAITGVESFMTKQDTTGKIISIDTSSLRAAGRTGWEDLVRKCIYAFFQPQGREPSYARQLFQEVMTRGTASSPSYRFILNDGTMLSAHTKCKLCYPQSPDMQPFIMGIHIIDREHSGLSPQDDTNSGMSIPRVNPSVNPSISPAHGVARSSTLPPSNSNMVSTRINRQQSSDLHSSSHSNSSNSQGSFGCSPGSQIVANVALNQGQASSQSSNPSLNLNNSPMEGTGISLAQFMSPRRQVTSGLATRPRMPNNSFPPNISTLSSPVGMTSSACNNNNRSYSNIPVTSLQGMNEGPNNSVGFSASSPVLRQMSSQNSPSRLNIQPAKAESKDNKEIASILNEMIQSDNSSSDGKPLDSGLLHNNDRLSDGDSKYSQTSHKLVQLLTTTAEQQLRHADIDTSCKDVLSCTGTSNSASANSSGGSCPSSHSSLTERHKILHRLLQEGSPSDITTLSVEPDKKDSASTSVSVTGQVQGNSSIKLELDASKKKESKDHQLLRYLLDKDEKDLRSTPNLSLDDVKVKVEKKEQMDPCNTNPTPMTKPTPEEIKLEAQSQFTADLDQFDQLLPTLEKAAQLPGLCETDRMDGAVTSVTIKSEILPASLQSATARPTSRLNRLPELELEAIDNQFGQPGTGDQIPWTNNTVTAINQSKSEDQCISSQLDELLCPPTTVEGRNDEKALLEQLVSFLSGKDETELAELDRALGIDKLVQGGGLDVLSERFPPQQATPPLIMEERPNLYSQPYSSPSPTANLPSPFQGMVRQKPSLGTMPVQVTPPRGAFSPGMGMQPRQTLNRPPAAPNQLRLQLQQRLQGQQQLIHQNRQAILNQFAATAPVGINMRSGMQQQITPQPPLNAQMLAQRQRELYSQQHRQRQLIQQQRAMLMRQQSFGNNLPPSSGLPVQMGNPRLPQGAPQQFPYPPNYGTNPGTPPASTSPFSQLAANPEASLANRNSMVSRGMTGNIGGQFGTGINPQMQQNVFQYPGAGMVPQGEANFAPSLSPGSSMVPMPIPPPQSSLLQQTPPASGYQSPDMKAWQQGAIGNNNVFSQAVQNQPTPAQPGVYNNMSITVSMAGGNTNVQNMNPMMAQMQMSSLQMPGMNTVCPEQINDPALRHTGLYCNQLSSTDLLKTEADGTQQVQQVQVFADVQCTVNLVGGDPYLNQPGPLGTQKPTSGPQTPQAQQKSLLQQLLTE
UniProt Q15155: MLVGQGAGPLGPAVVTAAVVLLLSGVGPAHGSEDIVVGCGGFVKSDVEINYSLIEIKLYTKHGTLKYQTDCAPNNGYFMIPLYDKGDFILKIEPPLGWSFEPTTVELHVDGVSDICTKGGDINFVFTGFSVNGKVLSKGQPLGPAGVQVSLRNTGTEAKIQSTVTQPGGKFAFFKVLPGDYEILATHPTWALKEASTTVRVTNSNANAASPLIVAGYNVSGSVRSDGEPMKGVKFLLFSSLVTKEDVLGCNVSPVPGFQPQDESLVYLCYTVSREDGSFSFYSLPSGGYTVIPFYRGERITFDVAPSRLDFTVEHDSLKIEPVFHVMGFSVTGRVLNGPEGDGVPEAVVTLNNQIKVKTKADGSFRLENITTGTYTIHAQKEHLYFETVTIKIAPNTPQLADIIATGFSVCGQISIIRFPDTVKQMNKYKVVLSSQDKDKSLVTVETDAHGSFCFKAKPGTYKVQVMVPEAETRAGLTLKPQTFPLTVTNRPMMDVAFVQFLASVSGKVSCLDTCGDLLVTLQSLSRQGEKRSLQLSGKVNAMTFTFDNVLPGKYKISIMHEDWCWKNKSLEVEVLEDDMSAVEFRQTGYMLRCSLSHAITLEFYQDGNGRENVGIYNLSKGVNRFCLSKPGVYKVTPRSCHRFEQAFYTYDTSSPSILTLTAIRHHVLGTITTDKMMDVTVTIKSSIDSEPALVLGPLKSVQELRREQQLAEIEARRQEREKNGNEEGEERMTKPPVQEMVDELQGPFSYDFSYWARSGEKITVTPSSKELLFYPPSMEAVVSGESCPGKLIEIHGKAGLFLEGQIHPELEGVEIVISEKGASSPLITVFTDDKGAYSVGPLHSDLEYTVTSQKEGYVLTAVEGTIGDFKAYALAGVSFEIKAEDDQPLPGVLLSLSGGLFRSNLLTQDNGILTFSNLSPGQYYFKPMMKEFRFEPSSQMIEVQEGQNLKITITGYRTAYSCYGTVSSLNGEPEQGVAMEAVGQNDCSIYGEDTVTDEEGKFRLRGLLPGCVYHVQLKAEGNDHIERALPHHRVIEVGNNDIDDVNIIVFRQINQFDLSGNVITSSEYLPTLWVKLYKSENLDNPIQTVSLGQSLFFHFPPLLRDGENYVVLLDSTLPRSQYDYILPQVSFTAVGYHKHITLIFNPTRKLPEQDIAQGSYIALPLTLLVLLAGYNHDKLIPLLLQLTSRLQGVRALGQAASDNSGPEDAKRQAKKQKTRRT
UniProt Q15544, whole entry: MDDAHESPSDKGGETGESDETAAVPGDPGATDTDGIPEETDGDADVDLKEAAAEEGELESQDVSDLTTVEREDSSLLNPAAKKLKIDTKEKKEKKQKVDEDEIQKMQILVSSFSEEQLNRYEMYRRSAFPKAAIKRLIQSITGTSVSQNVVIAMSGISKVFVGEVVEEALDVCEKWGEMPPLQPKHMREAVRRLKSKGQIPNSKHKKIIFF
UniProt Q15904, whole entry: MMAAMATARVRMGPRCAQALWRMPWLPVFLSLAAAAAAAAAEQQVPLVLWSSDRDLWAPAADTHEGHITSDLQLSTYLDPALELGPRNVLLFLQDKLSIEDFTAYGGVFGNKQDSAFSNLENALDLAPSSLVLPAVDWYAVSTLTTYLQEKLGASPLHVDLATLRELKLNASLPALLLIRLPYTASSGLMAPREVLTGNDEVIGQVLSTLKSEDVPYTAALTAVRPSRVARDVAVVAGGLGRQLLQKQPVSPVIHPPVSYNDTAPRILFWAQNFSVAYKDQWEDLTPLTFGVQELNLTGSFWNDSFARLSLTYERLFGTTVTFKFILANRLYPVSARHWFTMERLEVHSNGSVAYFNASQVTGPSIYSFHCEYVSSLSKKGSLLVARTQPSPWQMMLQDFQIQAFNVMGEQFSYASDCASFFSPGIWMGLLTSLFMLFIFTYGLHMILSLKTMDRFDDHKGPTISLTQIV
UniProt Q16656: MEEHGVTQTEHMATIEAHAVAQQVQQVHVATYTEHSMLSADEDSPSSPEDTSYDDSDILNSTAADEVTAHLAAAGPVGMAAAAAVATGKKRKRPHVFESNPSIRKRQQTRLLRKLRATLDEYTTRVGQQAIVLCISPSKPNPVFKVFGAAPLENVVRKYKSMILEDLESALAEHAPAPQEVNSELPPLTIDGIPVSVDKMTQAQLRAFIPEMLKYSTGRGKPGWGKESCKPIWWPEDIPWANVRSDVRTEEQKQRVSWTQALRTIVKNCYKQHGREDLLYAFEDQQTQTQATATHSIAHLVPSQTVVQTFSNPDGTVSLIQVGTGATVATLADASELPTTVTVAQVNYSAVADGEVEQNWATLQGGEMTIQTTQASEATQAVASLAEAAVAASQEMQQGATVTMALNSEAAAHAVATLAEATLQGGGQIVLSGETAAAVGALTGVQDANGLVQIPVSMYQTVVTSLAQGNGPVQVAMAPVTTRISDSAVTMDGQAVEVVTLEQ

compound: CN[C@@H]1C[C@H]2O[C@@](C)([C@@H]1OC)n1c3ccccc3c3c4c(c5c6ccccc6n2c5c31)C(=O)NC4 [staurosporine]; assay: log2 fold change of tryptic peptide abundance, ligand vs vehicle (limited proteolysis) (log2 ratio); higher = more trypsin-susceptible (destabilized); conditions: ligand concentration: 20 uM; sample: K562 cleared lysate; digestion: 4 min, 22 C (HT-PELSA RT4min, Orbitrap Astral)

Target	log2 fold change
MEA1 (peptide sequence: EISDAQWEDVVQK, peptide start residue: 161) (UniProt Q16626)	-0.135
PDK1 (peptide sequence: EISLLPDNLLR, peptide start residue: 93) (UniProt Q15118)	-0.184
CCDC57 (peptide sequence: EVDQVHLEVLELR, peptide start residue: 698) (UniProt Q2TAC2)	-0.0848
RBBP7 (peptide sequence: TVALWDLR, peptide start residue: 296) (UniProt Q16576)	-0.192
TERF2 (peptide sequence: WNSSNGVEEK, peptide start residue: 453) (UniProt Q15554)	-0.336
ACAP2 (peptide sequence: ASYEKNLPK, peptide start residue: 613) (UniProt Q15057)	0.826
SAFB (peptide sequence: MSSPEDDSDTKR, peptide start residue: 382) (UniProt Q15424)	-0.163
CNN3 (peptide sequence: GPSYGLSAEVK, peptide start residue: 9) (UniProt Q15417)	-0.0426
ARHGEF6 (peptide sequence: SNGQTIMEEK, peptide start residue: 703) (UniProt Q15052)	0.353
UniProt Q16206 (peptide sequence: LLQQALQGMQQHLLK, peptide start residue: 456)	-0.583
ZNF672 (peptide sequence: VSDAHQCGVCGK, peptide start residue: 195) (UniProt Q499Z4)	-0.749
PCK2 (peptide sequence: LARDEGWLAEHMLILGITSPAGK, peptide start residue: 272) (UniProt Q16822)	0.548
TSC22D1 (peptide sequence: SHLMYAVREEVEVLKEQIK, peptide start residue: 699) (UniProt Q15714)	0.525
NCOA1 (peptide sequence: NSHTFNCR, peptide start residue: 191) (UniProt Q15788)	0.702
PPP2R5B (peptide sequence: CVSSPHFQVAER, peptide start residue: 410) (UniProt Q15173)	0.126
NOMO1 (peptide sequence: ALGQAASDNSGPEDAKR, peptide start residue: 1196) (UniProt Q15155)	-0.186
MAP7D1 (peptide sequence: TPETLLPFAEAEAFLKK, peptide start residue: 813) (UniProt Q3KQU3)	-0.111
FXN (peptide sequence: GLNQIWNVK, peptide start residue: 61) (UniProt Q16595)	0.711
USF2 (peptide sequence: TETNGGQVTYR, peptide start residue: 70) (UniProt Q15853)	-0.226

Target	log2 fold change
TAF11 (peptide sequence: EDSSLLNPAAK, peptide start residue: 72) (UniProt Q15544)	0.125
TRIP10 (peptide sequence: LKLEVQKYEAWLAEAESR, peptide start residue: 457) (UniProt Q15642)	0.257
NFKBIB (peptide sequence: TPLGSAMLRPNPILAR, peptide start residue: 276) (UniProt Q15653)	0.134
TBCC (peptide sequence: AAVEELLERAESVER, peptide start residue: 69) (UniProt Q15814)	0.588
QRICH1 (peptide sequence: EQMGQMLTR, peptide start residue: 748) (UniProt Q2TAL8)	0.154
SEC23B (peptide sequence: LSDSFSLYPQFMFHLRR, peptide start residue: 572) (UniProt Q15437)	0.43
CPEB4 (peptide sequence: SWMEDSLNR, peptide start residue: 359) (UniProt Q17RY0)	-0.225
ATP6AP1 (peptide sequence: SEDVPYTAALTAVRPSR, peptide start residue: 212) (UniProt Q15904)	0.378
TIMM50 (peptide sequence: LEQEEQQR, peptide start residue: 318) (UniProt Q3ZCQ8)	0.432
PROSER3 (peptide sequence: PHTAVPTAVNVTSASHAVAPLQEIK, peptide start residue: 156) (UniProt Q2NL68)	-0.541
TWISTNB (peptide sequence: SEVSEEVTENGTEEAAKKPK, peptide start residue: 208) (UniProt Q3B726)	0.325
NRF1 (peptide sequence: KRPHVFESNPSIR, peptide start residue: 92) (UniProt Q16656)	-0.243
TST (peptide sequence: KVDLSQPLIATCR, peptide start residue: 237) (UniProt Q16762)	-0.165
UBE2S (peptide sequence: IFHPNVGANGEICVNVLKR, peptide start residue: 83) (UniProt Q16763)	-0.196
TRIP6 (peptide sequence: VAQPVRGCGPPR, peptide start residue: 174) (UniProt Q15654)	-0.157
INF2 (peptide sequence: VTLLHHVLEEAEKSHPDLLQLPR, peptide start residue: 798) (UniProt Q27J81)	-0.602
DGUOK (peptide sequence: SPLEGVSSSR, peptide start residue: 21) (UniProt Q16854)	0.113
UniProt Q29980 (peptide sequence: VCEIHEDSSTR, peptide start residue: 118)	-0.216
